Experimental data as given in PMC5741621.
Residue numbers refer to the chain shown, from its start. These are yes or no findings as the source states them, for the method shown. Some results given as binding are weak or reduced against the parent protein; the word gives no strength. Tags and fused reporters may be left off the sequences shown.

Amino acid sequences for entries named in this document (tags omitted). Residues count along the entry.
UniProt Q9FIJ0, residues 1-376: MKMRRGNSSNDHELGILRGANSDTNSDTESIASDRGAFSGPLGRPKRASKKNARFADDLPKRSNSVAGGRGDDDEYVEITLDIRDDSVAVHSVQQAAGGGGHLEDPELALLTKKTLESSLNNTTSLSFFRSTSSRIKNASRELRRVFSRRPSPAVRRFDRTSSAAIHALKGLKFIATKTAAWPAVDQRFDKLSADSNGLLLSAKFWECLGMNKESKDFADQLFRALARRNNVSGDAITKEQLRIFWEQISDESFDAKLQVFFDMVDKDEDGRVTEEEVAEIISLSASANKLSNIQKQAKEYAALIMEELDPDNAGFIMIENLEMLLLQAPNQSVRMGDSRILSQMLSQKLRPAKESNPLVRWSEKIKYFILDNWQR

Key:
[1] = target: T1, GST-DORN1-KD-1 (kinase dead, D572N) (Arabidopsis) (UniProt Q9LSR8); test: pull-down; 2 μg GST and His recombinant proteins in 50 mM Tris-HCl pH 7.5, 100 mM NaCl, 0.5% Triton-X 100, 2 h at 4 °C; Glutathione Resin beads; blots with anti-His and anti-GST; both purified
T1 sequence: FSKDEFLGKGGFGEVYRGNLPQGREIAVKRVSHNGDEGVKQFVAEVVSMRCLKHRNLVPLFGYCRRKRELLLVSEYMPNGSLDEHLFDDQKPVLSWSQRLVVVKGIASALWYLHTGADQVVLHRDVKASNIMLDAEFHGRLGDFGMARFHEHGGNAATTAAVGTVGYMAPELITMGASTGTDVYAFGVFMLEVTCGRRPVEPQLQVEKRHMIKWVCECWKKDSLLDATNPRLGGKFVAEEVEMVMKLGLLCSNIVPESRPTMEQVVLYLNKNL

[2] = target: T2, GST-DORN1-KD-2 (kinase dead, D525N) (Arabidopsis) (UniProt Q9LSR8); test: as above
T2 sequence: T1 sequence with D182N, N229D

[3] = target: T3, GST-DORN1-KD (DORN1 kinase domain) (Arabidopsis) (UniProt Q9LSR8); test: as above
T3 sequence: T1 sequence with N229D

[4] = target: T3, GST-DORN1-KD (DORN1 kinase domain) (Arabidopsis); test: pull-down; as the GST pull-down, with lambda protein phosphatase added to release phosphate groups from phosphorylated serine, threonine and tyrosine residues; both purified

binding [1]: binds
binding [2]: binds
binding [3]: binds
binding [4]: binds
Substance: His-RBOHD-N (N-terminal cytoplasmic domain of RBOHD) (from UniProt Q9FIJ0 1-376) (domain or fragment)
